Laboratory results: patent publication US4355101A, “Phenylmercaptoazole compounds” (Polaroid Corporation, priority 1981, dated 1982)

Experiment: Diffusion transfer film unit with top coat layer of blocked compound: Dmax and Dmin (red, green, blue)

N#CCCSc1nnnn1-c1ccc(O)cc1 [Compound V]
Dmax B (24° C.): 1.46 | Dmax G (24° C.): 1.42 | Dmax R (24° C.): 1.30 | Dmin B (24° C.): 0.15 | Dmin G (24° C.): 0.13 | Dmin R (24° C.): 0.15 | Dmax B (35° C.): 1.24 | Dmax G (35° C.): 1.27 | Dmax R (35° C.): 1.24 | Dmin B (35° C.): 0.17 | Dmin G (35° C.): 0.14 | Dmin R (35° C.): 0.17

CC(=O)CCSc1nnnn1-c1ccc(S(N)(=O)=O)cc1 [Compound IV]
Dmax B (24° C.): 1.37 | Dmax G (24° C.): 1.39 | Dmax R (24° C.): 1.44 | Dmin B (24° C.): 0.16 | Dmin G (24° C.): 0.13 | Dmin R (24° C.): 0.16 | Dmax B (35° C.): 1.14 | Dmax G (35° C.): 1.24 | Dmax R (35° C.): 1.28 | Dmin B (35° C.): 0.17 | Dmin G (35° C.): 0.14 | Dmin R (35° C.): 0.16

CS(=O)(=O)CCSc1nnnn1-c1ccc(O)cc1 [Compound I]
Dmax B (24° C.): 1.40 | Dmax G (24° C.): 1.48 | Dmax R (24° C.): 1.60 | Dmin B (24° C.): 0.24 | Dmin G (24° C.): 0.17 | Dmin R (24° C.): 0.18 | Dmax B (35° C.): 1.12 | Dmax G (35° C.): 1.23 | Dmax R (35° C.): 1.32 | Dmin B (35° C.): 0.24 | Dmin G (35° C.): 0.17 | Dmin R (35° C.): 0.16

CS(=O)(=O)CCSc1nnnn1-c1ccc(S(N)(=O)=O)cc1 [Compound II]
Dmax B (24° C.): 1.41 | Dmax G (24° C.): 1.43 | Dmax R (24° C.): 1.33 | Dmin B (24° C.): 0.23 | Dmin G (24° C.): 0.16 | Dmin R (24° C.): 0.15 | Dmax B (35° C.): 1.11 | Dmax G (35° C.): 1.13 | Dmax R (35° C.): 1.07 | Dmin B (35° C.): 0.25 | Dmin G (35° C.): 0.17 | Dmin R (35° C.): 0.16

CC(=NO)c1ccc(-n2nnnc2SCCC#N)cc1 [Compound VI]
Dmax B (24° C.): 1.64 | Dmax G (24° C.): 1.65 | Dmax R (24° C.): 1.58 | Dmin B (24° C.): 0.15 | Dmin G (24° C.): 0.13 | Dmin R (24° C.): 0.16 | Dmax B (35° C.): 1.34 | Dmax G (35° C.): 1.35 | Dmax R (35° C.): 1.40 | Dmin B (35° C.): 0.17 | Dmin G (35° C.): 0.14 | Dmin R (35° C.): 0.16

CC(=O)CCSc1nnnn1-c1ccc(O)cc1 [Compound III]
Dmax B (24° C.): 1.91 | Dmax G (24° C.): 1.74 | Dmax R (24° C.): 1.68 | Dmin B (24° C.): 0.26 | Dmin G (24° C.): 0.17 | Dmin R (24° C.): 0.16 | Dmax B (35° C.): 1.62 | Dmax G (35° C.): 1.67 | Dmax R (35° C.): 1.65 | Dmin B (35° C.): 0.26 | Dmin G (35° C.): 0.17 | Dmin R (35° C.): 0.16

CC(=O)Oc1ccc(CSc2nnnn2-c2ccc(O)cc2)cc1 [Compound VII]
Dmax B (24° C.): 1.88 | Dmax G (24° C.): 1.83 | Dmax R (24° C.): 1.48 | Dmin B (24° C.): 0.23 | Dmin G (24° C.): 0.15 | Dmin R (24° C.): 0.14 | Dmax B (35° C.): 1.61 | Dmax G (35° C.): 1.78 | Dmax R (35° C.): 1.67 | Dmin B (35° C.): 0.25 | Dmin G (35° C.): 0.15 | Dmin R (35° C.): 0.14
